Active and inactive are the calls of the source. No cut-off for these calls is given here.
System: MR49F
Conditions: Homo sapiens

CNC(=O)c1ccc(N2C(=S)N(c3ccc(C#N)c(C(F)(F)F)c3)C(=O)C2(C)C)cc1F
TGI: inactive

— ChEMBL document CHEMBL4411271, “New Generation of Selective Androgen Receptor Degraders: Our Initial Design, Synthesis, and Biological Evaluation of New Compounds with Enzalutamide-Resistant Prostate Cancer Activity” (J Med Chem, 2019)
